Measured values reported in PubChem BioAssay AID222 (DTP/NCI, 2004).
The list is a part of this screen's results and no random one: it is rich in T/C values a quarter to a half above the control, in often repeated tests (any T/C) and in doses without a T/C. Other doses and runs of a compound stand elsewhere. T/C gives the treated animals as a percentage of the vehicle group. Some doses have a count of surviving animals in place of a T/C: the source files T/C as zero there, which appears to mark a toxic dose or a test without result, not a measured value. Some survivor counts are full or nearly so, which does not show that the dose was tolerated: survival well below the control is almost never listed, so the zero probably covers shortened survival too. Survivors were counted at the toxicity check, usually on the fifth day, unless a day is given; later deaths do not show. Schedule codes are those of the source, read here as Q, the interval in days (D) or hours (H), X, the number of doses. Some entries hold several experiments; the results are listed from low to high. Some schedule codes hold Z or #, which are not explained here. For survival time, the PubChem record calls one and a half times the control and up active, and a quarter to a half above the control has no call in these data; cut-offs in other NCI protocols can differ. Some T/C values are followed by the survivors on the day toxicity was checked, most often the fifth; where none is given, no animal had died by that day. Brackets with × give the number of equal values in this list.

Test system: C57BL/6 mice, intracerebral ependymoblastoma, median survival T/C
Experiment: NCI In Vivo Anticancer Drug Screen. Data for tumor model Ependymoblastoma (intracerebral) in C57BL/6 mice
Settings: T/C endpoint: median survival time, higher T/C = longer survival
Experimental: The antitumor activity of compounds was measured in mice bearing transplantable tumors. Survival or tumor size were measured and the results are expressed as the measurement made in the treated group (T) divided by the measurement made in the vehicle treated control group (C). The tumor model used in this assay is Ependymoblastoma (intracerebral) in C57BL/6 mice

[1] = dose: 2.5 mg/kg/injection, schedule: Q01DX001 (ip), vehicle: Klucel (hydroxypropylcellulose) (HPC)
[2] = dose: 40.0 mg/kg/injection, schedule: Q01DX001 (ip), vehicle: Klucel (hydroxypropylcellulose) (HPC)
[3] = dose: 80.0 mg/kg/injection, schedule: Q01DX001 (ip), vehicle: Klucel (hydroxypropylcellulose) (HPC)
[4] = dose: 16.0 mg/kg/injection, schedule: Q01DX005 (ip), vehicle: Klucel (hydroxypropylcellulose) (HPC)

Compound: C[C@@H](CN1CC(=O)NC(=O)C1)N1CC(=O)NC(=O)C1
- survivor count (dose: 4.0 mg/kg/injection, schedule: Q01DX005 (ip), vehicle: other): 10 of 10
- survivor count (dose: 16.0 mg/kg/injection, schedule: Q01DX005 (ip), vehicle: other): 10 of 10
- T/C (dose: 64.0 mg/kg/injection, schedule: Q01DX005 (ip), vehicle: Klucel (hydroxypropylcellulose) (HPC)): 126 % of control
- survivor count (dose: 64.0 mg/kg/injection, schedule: Q01DX005 (ip), vehicle: other): 10 of 10
- survivor count (dose: 128.0 mg/kg/injection, schedule: Q01DX005 (ip), vehicle: saline): 10 of 10
- survivor count (dose: 256.0 mg/kg/injection, schedule: Q01DX005 (ip), vehicle: Klucel (hydroxypropylcellulose) (HPC)): 9 of 10 and 10 of 10
- survivor count (dose: 256.0 mg/kg/injection, schedule: Q01DX005 (ip), vehicle: other): 10 of 10
- survivor count (dose: 256.0 mg/kg/injection, schedule: Q01DX005 (ip), vehicle: saline): 9 of 10 and 10 of 10
- survivor count (dose: 256.0 mg/kg/injection, schedule: Q01DX005 (ip), vehicle: water): 10 of 10
- survivor count (dose: 512.0 mg/kg/injection, schedule: Q01DX005 (ip), vehicle: saline): 9 of 10 and 10 of 10
- survivor count (dose: 1024.0 mg/kg/injection, schedule: Q01DX005 (ip), vehicle: Klucel (hydroxypropylcellulose) (HPC)): 2 of 10, 9 of 10, 10 of 10
- survivor count (dose: 1024.0 mg/kg/injection, schedule: Q01DX005 (ip), vehicle: other): 10 of 10

Compound: CN(C)C(=O)N(CCCl)N=O
- T/C [1]: 94 [4 of 10 alive], 105, 107 [8 of 10 alive], 112, 116, 118, 121, 128 % of control
- survivor count [1]: 4 of 10
- T/C (dose: 5.0 mg/kg/injection, schedule: Q01DX001 (ip), vehicle: Klucel (hydroxypropylcellulose) (HPC)): 104 [7 of 10 alive], 107, 107 [6 of 10 alive], 116 [7 of 10 alive], 117, 121, 122, 125, 139 % of control
- T/C (dose: 10.0 mg/kg/injection, schedule: Q01DX001 (ip), vehicle: Klucel (hydroxypropylcellulose) (HPC)): 100 [6 of 10 alive], 102 [5 of 10 alive], 113, 125 [6 of 10 alive], 126, 127, 128, 144, 161 % of control
- T/C (dose: 10.0 mg/kg/injection, schedule: Q01DX001 (ip), vehicle: other): 127 % of control
- T/C (dose: 20.0 mg/kg/injection, schedule: Q01DX001 (ip), vehicle: Klucel (hydroxypropylcellulose) (HPC)): 95 [4 of 10 alive], 97 [3 of 10 alive], 103 [6 of 10 alive], 148, 159, 184 [9 of 10 alive], 197, 201, 204 % of control
- survivor count (dose: 32.0 mg/kg/injection, schedule: Q01DX001 (ip), vehicle: other): 7 of 10
- T/C [2]: 91, 99 [4 of 10 alive], 99 [8 of 10 alive], 114 [7 of 10 alive], 123, 196, 250 % of control
- survivor count [2]: 4 of 10 and 8 of 10
- survivor count (dose: 40.0 mg/kg/injection, schedule: Q01DX001 (ip), vehicle: other): 9 of 10
- survivor count (dose: 64.0 mg/kg/injection, schedule: Q01DX001 (ip), vehicle: other): 8 of 10
- T/C [3]: 97 [4 of 10 alive], 99 [3 of 10 alive], 100 % of control [6 of 10 alive]
- survivor count [3]: 1 of 10, 2 of 10, 4 of 10, 5 of 10

Compound: CC1CCC(NC(=O)N(CCCl)N=O)CC1 (configuration not stated)
- T/C (dose: 0.5 mg/kg/injection, schedule: Q01DX005 (ip), vehicle: Klucel (hydroxypropylcellulose) (HPC)): 103, 106, 106 [9 of 10 alive], 113, 116, 119 % of control
- T/C (dose: 1.0 mg/kg/injection, schedule: Q01DX005 (ip), vehicle: Klucel (hydroxypropylcellulose) (HPC)): 105 [9 of 10 alive], 110 (2×), 116, 121, 133 % of control
- T/C (dose: 2.0 mg/kg/injection, schedule: Q01DX005 (ip), vehicle: Klucel (hydroxypropylcellulose) (HPC)): 101 [9 of 10 alive], 107, 112, 117 [9 of 10 alive], 119, 137 % of control
- T/C (dose: 4.0 mg/kg/injection, schedule: Q01DX005 (ip), vehicle: Klucel (hydroxypropylcellulose) (HPC)): 120, 128, 132, 133, 147, 149 % of control
- T/C (dose: 8.0 mg/kg/injection, schedule: Q01DX005 (ip), vehicle: Klucel (hydroxypropylcellulose) (HPC)): 111, 130, 149 [9 of 10 alive], 151, 160, 302 % of control
- T/C [4]: 125 % of control [9 of 10 alive]
- survivor count [4]: 9 of 10 and 10 of 10
- survivor count (dose: 32.0 mg/kg/injection, schedule: Q01DX005 (oral), vehicle: Klucel (hydroxypropylcellulose) (HPC)): 9 of 10
- survivor count (dose: 64.0 mg/kg/injection, schedule: Q01DX005 (oral), vehicle: Klucel (hydroxypropylcellulose) (HPC)): 9 of 10
- survivor count (dose: 128.0 mg/kg/injection, schedule: Q01DX005 (oral), vehicle: Klucel (hydroxypropylcellulose) (HPC)): 5 of 10

Compound: CCC1(O)CC2CN(CCc3c([nH]c4ccccc34)C(C(=O)OC)(c3cc4c(cc3OC)N(C)C3C(O)(C(=O)NCCO)C(O)C5(CC)C=CCN6CCC43C65)C2)C1 (configuration not stated)
- survivor count (dose: 1.6 mg/kg/injection, schedule: Q01DX005 (ip), vehicle: saline): 0 of 6
- survivor count (dose: 3.2 mg/kg/injection, schedule: Q01DX005 (ip), vehicle: saline): 1 of 6
- survivor count (dose: 6.4 mg/kg/injection, schedule: Q01DX005 (ip), vehicle: saline): 0 of 6
- survivor count (dose: 12.8 mg/kg/injection, schedule: Q01DX005 (ip), vehicle: saline): 0 of 6

Compound: O=c1n(CC2CO2)c(=O)n(CC2CO2)c(=O)n1CC1CO1 (configuration not stated)
- T/C (dose: 30.0 mg/kg/injection, schedule: Q01DX009 (ip), vehicle: saline): 128 % of control

Compound: COc1ccc2c(c1O)-c1cc(O)cc3c1C(C2)N(CCCl)CC3 (configuration not stated)
- survivor count (dose: 8.0 mg/kg/injection, schedule: Q01DX005 (ip), vehicle: saline with Tween-80): 10 of 10
- survivor count (dose: 32.0 mg/kg/injection, schedule: Q01DX005 (ip), vehicle: saline with Tween-80): 8 of 10
- survivor count (dose: 64.0 mg/kg/injection, schedule: Q01DX005 (ip), vehicle: saline with Tween-80): 0 of 10 and 1 of 10

Compound: COc1cccc2c1C(=O)c1c(O)c3c(c(O)c1C2=O)C[C@@](O)(C(=O)CO)C[C@@H]3OC1CC(N)C(O)C(C)O1 (some centres not stated)
- survivor count (dose: 0.5 mg/kg/injection, schedule: Q07DX003 (ip), vehicle: saline): 10 of 10
- T/C (dose: 1.0 mg/kg/injection, schedule: Q01DX009 (ip), vehicle: saline): 127 % of control
- survivor count (dose: 2.0 mg/kg/injection, schedule: Q01DX005 (oral), vehicle: saline): 6 of 10
- T/C (dose: 4.0 mg/kg/injection, schedule: Q01DX001 (ip), vehicle: saline): 96 [5 of 10 alive], 100, 109 [8 of 10 alive], 111 % of control
- survivor count (dose: 4.0 mg/kg/injection, schedule: Q07DX003 (ip), vehicle: saline): 10 of 10
- survivor count (dose: 4.0 mg/kg/injection, schedule: Q## X006 (ip), vehicle: saline): 9 of 10
- T/C (dose: 8.0 mg/kg/injection, schedule: Q01DX001 (ip), vehicle: saline): 100, 101, 101 [6 of 10 alive], 102 % of control [7 of 10 alive]
- survivor count (dose: 8.0 mg/kg/injection, schedule: Q07DX003 (ip), vehicle: saline): 4 of 10
- survivor count (dose: 8.0 mg/kg/injection, schedule: Q## X006 (ip), vehicle: saline): 5 of 10
- survivor count (dose: 16.0 mg/kg/injection, schedule: Q01DX001 (ip), vehicle: saline): 4 of 10
- survivor count (dose: 16.0 mg/kg/injection, schedule: Q07DX003 (ip), vehicle: saline): 8 of 10
- survivor count (dose: 32.0 mg/kg/injection, schedule: Q01DX001 (ip), vehicle: saline): 1 of 10
- survivor count (dose: 64.0 mg/kg/injection, schedule: Q01DX001 (ip), vehicle: saline): 2 of 10
- survivor count (dose: 128.0 mg/kg/injection, schedule: Q01DX001 (ip), vehicle: saline): 0 of 10
